Here are results for 3 substances from paper PMC11461180, “Interaction with IP6K1 supports pyrophosphorylation of substrate proteins by the inositol pyrophosphate 5-InsP7” (Bioscience Reports, 2024).

Sequences of proteins named here, by UniProt entry; tags and fusion partners are left off. A change or cut given only in a name is not applied to a line headed by its entry.
UniProt P68400: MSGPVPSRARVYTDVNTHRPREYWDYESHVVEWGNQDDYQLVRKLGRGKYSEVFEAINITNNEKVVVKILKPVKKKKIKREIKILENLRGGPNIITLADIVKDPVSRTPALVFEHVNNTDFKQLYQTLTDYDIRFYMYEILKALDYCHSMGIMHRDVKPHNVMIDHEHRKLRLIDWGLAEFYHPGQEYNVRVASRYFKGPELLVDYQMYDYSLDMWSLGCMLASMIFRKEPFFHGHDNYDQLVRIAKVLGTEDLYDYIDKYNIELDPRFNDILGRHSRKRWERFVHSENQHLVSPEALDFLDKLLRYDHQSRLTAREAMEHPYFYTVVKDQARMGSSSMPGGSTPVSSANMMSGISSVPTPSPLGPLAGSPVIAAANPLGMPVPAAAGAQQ
UniProt Q92551: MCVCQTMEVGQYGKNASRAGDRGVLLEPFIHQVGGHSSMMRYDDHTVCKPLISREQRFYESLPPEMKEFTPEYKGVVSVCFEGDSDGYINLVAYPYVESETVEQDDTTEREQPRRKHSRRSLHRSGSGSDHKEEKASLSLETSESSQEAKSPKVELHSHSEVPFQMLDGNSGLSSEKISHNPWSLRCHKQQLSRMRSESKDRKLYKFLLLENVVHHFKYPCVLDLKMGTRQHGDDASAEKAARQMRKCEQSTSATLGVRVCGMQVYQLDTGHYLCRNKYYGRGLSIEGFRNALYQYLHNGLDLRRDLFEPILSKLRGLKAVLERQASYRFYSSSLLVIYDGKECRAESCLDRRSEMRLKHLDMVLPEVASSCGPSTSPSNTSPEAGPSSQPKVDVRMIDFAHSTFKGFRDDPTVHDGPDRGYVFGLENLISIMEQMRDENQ
UniProt P01108: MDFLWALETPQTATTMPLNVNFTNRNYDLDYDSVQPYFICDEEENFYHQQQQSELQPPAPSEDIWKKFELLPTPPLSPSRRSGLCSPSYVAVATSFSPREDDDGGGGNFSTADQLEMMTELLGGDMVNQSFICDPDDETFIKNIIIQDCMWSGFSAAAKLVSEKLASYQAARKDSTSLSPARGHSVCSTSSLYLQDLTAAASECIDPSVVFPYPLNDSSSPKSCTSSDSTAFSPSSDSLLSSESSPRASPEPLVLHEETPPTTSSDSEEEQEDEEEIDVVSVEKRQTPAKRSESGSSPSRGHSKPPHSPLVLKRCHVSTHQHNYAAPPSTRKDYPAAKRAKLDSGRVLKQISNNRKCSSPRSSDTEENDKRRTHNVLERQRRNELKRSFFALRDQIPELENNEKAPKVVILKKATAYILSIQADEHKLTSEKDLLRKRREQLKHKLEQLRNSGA

The target of experiment [1] is GST-tagged recombinant CK2α (human) (UniProt P68400). Kind of experiment: pull-down; GST-tagged IP6K1 or CK2α purified from E. coli and immobilized on glutathione-sepharose beads, incubated with lysates of transfected HEK293T cells in 50 mM HEPES-KOH pH 7.4, 100 mM NaCl, 5 mM MgCl2, 0.3% Triton X-100, 2 h at 4°C; immunoblotting; only the target purified.
Another experiment deals with T1, SFB-tagged AP3B1 (human) (UniProt O00203).
T1 sequence: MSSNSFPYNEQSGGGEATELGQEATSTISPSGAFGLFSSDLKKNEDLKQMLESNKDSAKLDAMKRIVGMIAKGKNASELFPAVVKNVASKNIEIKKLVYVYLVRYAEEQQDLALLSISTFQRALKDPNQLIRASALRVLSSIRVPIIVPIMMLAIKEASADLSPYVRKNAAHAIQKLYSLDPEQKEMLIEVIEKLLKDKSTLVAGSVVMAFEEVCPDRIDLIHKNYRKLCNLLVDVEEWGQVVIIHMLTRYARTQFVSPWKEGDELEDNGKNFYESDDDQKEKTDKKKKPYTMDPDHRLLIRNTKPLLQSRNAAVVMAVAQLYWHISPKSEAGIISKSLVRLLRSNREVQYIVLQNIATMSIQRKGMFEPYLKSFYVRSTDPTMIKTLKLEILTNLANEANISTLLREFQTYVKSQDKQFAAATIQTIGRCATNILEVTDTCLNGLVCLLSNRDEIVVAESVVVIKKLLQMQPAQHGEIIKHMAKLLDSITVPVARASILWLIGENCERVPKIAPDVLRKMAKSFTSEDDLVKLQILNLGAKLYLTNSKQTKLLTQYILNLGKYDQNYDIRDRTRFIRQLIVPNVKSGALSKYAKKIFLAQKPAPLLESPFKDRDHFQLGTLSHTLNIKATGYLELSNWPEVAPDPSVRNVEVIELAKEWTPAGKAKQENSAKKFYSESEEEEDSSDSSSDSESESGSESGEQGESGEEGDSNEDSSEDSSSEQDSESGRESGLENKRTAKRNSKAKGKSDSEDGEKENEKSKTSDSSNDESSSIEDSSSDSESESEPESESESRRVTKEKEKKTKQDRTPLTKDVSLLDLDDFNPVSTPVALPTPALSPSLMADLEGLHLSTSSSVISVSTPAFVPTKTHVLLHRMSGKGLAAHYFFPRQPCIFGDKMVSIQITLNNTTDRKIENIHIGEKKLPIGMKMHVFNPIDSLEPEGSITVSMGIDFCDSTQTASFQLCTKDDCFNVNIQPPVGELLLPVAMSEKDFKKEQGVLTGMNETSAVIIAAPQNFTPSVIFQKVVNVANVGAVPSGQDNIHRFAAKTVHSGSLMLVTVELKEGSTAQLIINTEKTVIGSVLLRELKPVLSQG
Kind of experiment: pull-down; SFB-tagged bait expressed in HEK293T (HEK293) cells, pulled down from the lysate with streptavidin-sepharose beads, 2 h at 4°C (50 mM HEPES pH 7.4, 100 mM NaCl, 1 mM EDTA, 0.5% Nonidet P-40); prey endogenous or co-expressed, detected by immunoblotting.

The target in experiment [2] is SFB-tagged IP6K1 (full length) (human) (UniProt Q92551). Described as above.

These are yes or no findings as the source states them, for the method shown. In cells and extracts the contact can be indirect. Some results given as binding are weak or reduced against the parent protein; the word gives no strength. For part of these data: Tags and fused reporters may be left off the sequences shown.

For the substance “V5-tagged IP6K1 (from UniProt Q92551-1 1-441) (enzyme)”, the binding entry in experiment [1] is reported as “no binding”.

As to “endogenous CK2 α-subunit (CK2α) (from UniProt P68400 1-391) (enzyme)”, the binding result in the experiment with SFB-tagged AP3B1 (human) was “binds”.

For the substance “mouse MYC protein, C-terminally V5-tagged (from UniProt P01108 1-454)”, the binding entry in experiment [2] is on record as “binds”.
